# Test: 1H NMR evaluation of oxidative consumption of salivary biomolecules by ozone
# Conditions: human saliva 0.60 ml, O3 for 30 seconds, 600 MHz 1H NMR
compound,measurement,value
O=[O+][O-] [ozone],fate of salivary 3-D-hydroxybutyrate after O3 treatment,evidence for the O3-mediated oxidation of salivary 3-D-hydroxybutyrate
same,fate of salivary methionine after O3 treatment,oxidation of the volatile sulphur compound precursor methionine to its corresponding sulphoxide
same,fate of salivary polyunsaturated fatty acids after O3 treatment,oxidative consumption of salivary polyunsaturated fatty acids
same,fate of salivary pyruvate after O3 treatment,oxidative decarboxylation of the salivary electron-donor pyruvate
